Measured values from doi:10.1101/2020.11.14.382416.

By UniProt entry, the sequences of proteins in these tests, tags left out.
UniProt Q86U44, whole entry: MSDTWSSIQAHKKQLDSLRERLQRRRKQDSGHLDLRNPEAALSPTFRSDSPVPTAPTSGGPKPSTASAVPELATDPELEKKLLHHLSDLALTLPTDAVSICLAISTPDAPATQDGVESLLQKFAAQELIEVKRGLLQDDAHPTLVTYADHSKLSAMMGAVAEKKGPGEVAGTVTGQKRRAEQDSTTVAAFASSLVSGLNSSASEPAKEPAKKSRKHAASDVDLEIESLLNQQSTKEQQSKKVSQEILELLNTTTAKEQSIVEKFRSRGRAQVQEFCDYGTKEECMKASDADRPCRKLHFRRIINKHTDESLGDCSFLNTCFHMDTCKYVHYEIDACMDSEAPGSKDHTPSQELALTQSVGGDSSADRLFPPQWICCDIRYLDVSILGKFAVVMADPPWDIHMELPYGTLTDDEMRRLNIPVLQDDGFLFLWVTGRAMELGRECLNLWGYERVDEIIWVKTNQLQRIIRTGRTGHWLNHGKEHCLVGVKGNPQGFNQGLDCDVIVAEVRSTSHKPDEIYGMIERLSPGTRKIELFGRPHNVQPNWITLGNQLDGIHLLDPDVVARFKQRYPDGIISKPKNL

Biological target: Flag-tagged METTL3 in TL macrophages (UniProt Q86U44)
Assay: affinity purification with mass spectrometry

Molecule	binding
ribosome-binding protein 1 (Rrbp1) (from UniProt Q99PL5 1-1605)	binds
E3 SUMO-protein ligase PIAS1 (from UniProt O88907 1-651) (enzyme)	binds
60S ribosome subunit biogenesis protein NIP7 homolog (protein, UniProt Q9CXK8 1-180) MRPLTEEETRVMFEKIAKYIGENLQLLVDRPDGTYCFRLHNDRVYYVSEMMLKLAANISGDKLVSLGTCFGKFTKTHKFRLHVTALDYLAPYAKYKVWVKPGAEQSFLYGNHVLKSGLGRITENTSQYQGVVVYSMADIPLGFGVAAKSTQDCRKVDPMAIVVFHQADIGEYVRHEETLT	binds
ribosomal RNA processing protein Rrp1 (protein, UniProt P56183 1-494) MVPGVPLPPEIQLAQRLAGNEQVTRDRALRKLRKYIEARSQRATGGFTPDELLKVWKGLFYCMWMQDKPLQQEELGRTIAQLVHAFHTTEAQHQFLKAFWQTMIREWVGIDRLRLDKFYMLMRMVLSESLKAVKARGWDERQIEQLLELLTTEILNPDSQAPSGVKSHFLEIFLEELAKVGAAELTADQNLQFIDPFCQIAARTKDSQVLHKIIQSIFQTIVEQAPLAIEDIMNELDTQSGEGEASDGDDGEASDGDDGEASDDDDGEASDGGDGDVADSDDSDGADDDDGDVSDGDGGDNDEGDSNKSSEGEQDLQDTPPKKLPAGTAHRAGPEADKEQAWDDEENAGPVLQFDYEALANRLFKLASRQSTPSQNRKRLYKVIQKLRELAGGTFPEDDVPEKAYKKMLEGRRERKKKKKRLPKPQPQNKEAGSEAESSSADPGPGRKRKRNRKTDEKAGQGGPPGKRRKPGARAKGAGAQQPKKRIQSSQSAE	binds
ribosomal RNA processing protein Rrp36 (protein, UniProt Q3UFY0 1-244) MRKAGSRARAEAEGPHRAMEGGEVTGDRLKADTPDVSFEELLRLQGQGRPKAHKQLVAGNSTRTRSPQQPVCVADKHRPLEMSAKVRVPFLRQVVPISKKVARDPRFDDLSGDYNPEVFDKTYQFLNDIRAKEKQLVKKQLKRHRSGEERDKLQQLLQRMEQQEMAQQERKQQQELRLALKQERRAQAQQGHRPYFLKKSEQRQLALAEKFKELRRSKKLESFLSRKRRRNAGKDRRHLPLSKE	binds
ribosomal RNA processing protein Rrp7a (protein, UniProt Q9D1C9 1-280) MVSRRKKRKAGGHEESIPSPPGYSAVPVKFSAKQQAPHYLYMRQHRVRQGTQSTWPPDRTLFILNVPPYCTQESLSRCLSCCGTIKTVELQEKPDLAESPTEPKSQFFHPKPVPGFQVAYVVFQKPSGVSAALNLKGPLLVSTESHLVKSGIHKWISDYEDSVLDPEALRMEVDAFMEAYDKKIAEEEAKAKEEEGVPDEEGWVKVTRRGRRPVLPRTEAASLRVLEKEKRKRARKELLNFYAWQHRETKMEHLAQLRKKFEEDKQRIELMRAQRKFRPY	binds
ribosomal RNA processing protein Rrp8 (protein, UniProt Q9DB85 1-457) MFEEPEWVEAAPAIVGLGAATAQVRPATAPPVKGRKRRHLLATLRALEAASLSQQTPSLPGSDSEEEEEVGRKKRHLQRPSLASVSKEVGKKRKGKCQKQAPSISDSEGKEIRRKCHRQAPPLGGVSAGEEKGKRKCQEYSSLHLTQPLDSVDQTVHNSRTSTATIDPSKPSPESMSPNSSHTLSRKQWRNRQKNKRRHKNKFRPLQTPEQAPPKASIEETEVPPVPKSDSQESRAGALRARMTQRLDGARFRYLNEQLYSGPSSAARRLFQEDPEAFLLYHRGFQRQVKKWPLHPVDRIAKDLRQKPASLVVADFGCGDCRLASSVRNPVHCFDLASLDPRVTVCDMAQVPLEDESVDVAVFCLSLMGTNIRDFLEEANRVLKTGGLLKVAEVSSRFEDIRTFLGAVTKLGFKIIYKDLTNSHFFLFDFEKTGPPRVGPKAQLSGLKLQPCLYKRR	binds
E3 SUMO-protein ligase CBX4 (enzyme, UniProt O55187 1-551) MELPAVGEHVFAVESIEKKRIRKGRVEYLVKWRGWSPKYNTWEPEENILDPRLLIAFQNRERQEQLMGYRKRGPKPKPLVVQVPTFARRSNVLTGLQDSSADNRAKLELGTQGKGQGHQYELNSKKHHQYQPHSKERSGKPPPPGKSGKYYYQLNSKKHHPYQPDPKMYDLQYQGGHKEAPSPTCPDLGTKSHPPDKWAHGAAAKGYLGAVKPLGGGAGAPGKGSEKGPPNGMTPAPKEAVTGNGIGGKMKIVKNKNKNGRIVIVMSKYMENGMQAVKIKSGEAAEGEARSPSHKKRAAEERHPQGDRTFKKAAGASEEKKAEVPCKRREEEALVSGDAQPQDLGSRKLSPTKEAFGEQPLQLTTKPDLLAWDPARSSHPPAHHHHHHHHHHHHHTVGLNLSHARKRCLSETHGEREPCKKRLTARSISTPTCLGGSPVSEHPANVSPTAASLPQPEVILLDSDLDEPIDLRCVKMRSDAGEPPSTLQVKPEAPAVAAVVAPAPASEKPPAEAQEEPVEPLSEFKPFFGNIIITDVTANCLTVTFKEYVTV	binds
SUMO1-specific protease SENP1 (enzyme, UniProt P59110 1-640) MDDTADGVKMDAGEVTLVNHGSTFRTHRPPQSGFPEEQLLLSDQQSLPFRQGTLDGSFTCSTRSPAYRPDYHSDNPSSDSFLGSGDVRTFGQSANGQWRNSTPASGSAPQKPRNSRSLCLETRKTSSGLSNTFVGKSNHHCHMSAYEKSFPIKPAPSPSWSGSCRRSLLSPKKTQRRHFSTAEETVQEEEKEIYRQLLQMVTGKQFCVAKPTTHFPLRLSRCLSSNKNSLKDSLLRNGNSCASHVIGSDTSSSGSASILTAQEQLSHSAHSLSSGTPDVAFGSKDSDPHHHLAAPHQPNSLPASNTQSEGSDSVILLKVKESQTPASSPTFFQAELWIKELTSVYDSRARERLRRIEEQKALALQLQNQRLQEQEHAVLDSVELHLRVPLEKEIPVTAAQETRKKSHQLTDSEDEFPEITEEMEKEIKNVFRNGNQDEVLSEAFRLTITRKDIQTLNHLNWLNDEIINFYMNMLMERSKEKGFPSVHAFNTFFFTKLKTAGYQAVKRWTKKVDVFSVDILLVPIHLGVHWCLAVVDFRRKSITYYDSMGGINNEACRILLQYLKQESVDKKRKEFDTNGWQLFSKKSQEIPQQMNGSDCGMFACKYADCITKDRPINFTQQHMPYFRKRMVWEILHRKLL	binds

Results are given in words; binding and its absence hold for the method and conditions named. Binding seen in cells or lysates may run through a third protein. A yes stands for co-enrichment or nearness to the bait. Other partners may have been found.
